Results: PMC8505262
These are yes or no findings as the source states them, for the method shown. Binding seen in cells or lysates may run through a third protein. A yes stands for co-enrichment or nearness to the bait. Other partners may have been found. Sequences can lack the tags named with a protein.

T1: HA-tagged Neurensin-2 (UniProt Q5HZK2)
T1 sequence: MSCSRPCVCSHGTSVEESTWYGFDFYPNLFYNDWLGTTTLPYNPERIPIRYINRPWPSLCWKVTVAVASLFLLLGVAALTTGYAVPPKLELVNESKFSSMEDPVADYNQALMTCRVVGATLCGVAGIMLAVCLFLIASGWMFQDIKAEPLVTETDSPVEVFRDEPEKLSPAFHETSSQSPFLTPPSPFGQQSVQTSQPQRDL


Biological target: T1, HA-tagged Neurensin-2
Test: affinity purification with mass spectrometry; N2a cells transfected with HA-tagged Neurensin-2 or HA control; the tagged protein immunoprecipitated, partners identified by mass spectrometry

| binding | Binder |
| --- | --- |
| binds | Homer1 (protein, UniProt Q9Z2Y3 1-366) MGEQPIFSTRAHVFQIDPNTKKNWVPTSKHAVTVSYFYDSTRNVYRIISLDGSKAIINSTITPNMTFTKTSQKFGQWADSRANTVYGLGFSSEHHLSKFAEKFQEFKEAARLAKEKSQEKMELTSTPSQESAGGDLQSPLTPESINGTDDERTPDVTQNSEPRAEPTQNALPFPHSAGDRTQALSHASSAISKHWEAELATLKGNNAKLTAALLESTANVKQWKQQLAAYQEEAERLHKRVTELECVSSQANAVHSHKTELNQTVQELEETLKVKEEEIERLKQEIDNARELQEQRDSLTQKLQEVEIRNKDLEGQLSDLEQRLEKSQNEQEAFRSNLKTLLEILDGKIFELTELRDNLAKLLECS |
| binds | Homer3 (protein, UniProt Q99JP6 1-356) MSTAREQPIFSTRAHVFQIDPTTKRNWIPAGKHALTVSYFYDATRNVYRIISIGGAKAIINSTVTPNMTFTKTSQKFGQWADSRANTVYGLGFASEQQLTQFAEKFQEVKEAARLAREKSQDGGEFTSTGLALASHQVPPSPLVSTNGPGEEKLFRSQSADTPGPTERERLKKMLSEGSVGEVQWEAEFFALQDSNQRLAGALREANAAATQWRQQLEVQRAEAELLRQRVAELEAQVAVEPVRAGEKEATSQSVEQLEARVQTKDQTLKNQSTGTREAPDTAEREETQQQVQDLETRNAELEQQLRSMECNLEEARAERERARAEVGRAAQLLDVRLFELSELREGLARLAEAAP |
